Results are given in words; binding and its absence hold for the method and conditions named. In cells and extracts the contact can be indirect. For part of these data: Binding calls can cover weak binding; strength is not graded here. Tags and fused reporters may be left off the sequences shown.
Legend:
[1] = target: T1, GST-NCL-NTD(1-110) (rabbit) (UniProt G1TVT0); test: pull-down
T1 sequence: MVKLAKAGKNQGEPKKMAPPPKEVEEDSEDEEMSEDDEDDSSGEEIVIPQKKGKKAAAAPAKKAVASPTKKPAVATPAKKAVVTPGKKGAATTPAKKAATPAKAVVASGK

[2] = target: T2, GST-NCL-NTD(111-214) (rabbit) (UniProt G1TVT0); test: condition: 25 μM GST fusion protein, 3-fold molar excess of prey
T2 sequence: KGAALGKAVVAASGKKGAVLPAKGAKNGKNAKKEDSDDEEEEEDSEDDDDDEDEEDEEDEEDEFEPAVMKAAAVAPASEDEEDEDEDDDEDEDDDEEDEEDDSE

[3] = target: T3, GST-NCL-NTD(215-318) (rabbit) (UniProt G1TVT0); test: as above
T3 sequence: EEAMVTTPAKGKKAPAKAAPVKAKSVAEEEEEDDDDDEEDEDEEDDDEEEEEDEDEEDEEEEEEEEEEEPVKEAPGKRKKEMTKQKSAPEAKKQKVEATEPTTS

Substance: p16-myc
- binding [1]: binds
- binding [2]: no binding
- binding [3]: no binding

— publication doi:10.1101/2020.05.13.094185
